Some results were stated once for a whole list of compounds, not compound by compound.
Test system: lymph node cells
Assay: Nasal administration: inhibition of lymph node cell proliferation to the human 16/6Id mAb
Type: in vivo
Settings: nasal administration of 10 or even 2 μg/mouse concomitant with immunization with human 16/6Id mAb

GYYWSWIRQPPGKGEEWIG (Human) [hCDR1, 19-mer peptide based on the CDR1 of the heavy chain of the human 16/6Id mAb]
inhibition of the proliferative responses of lymph node cells to the immunizing antibody: up to 100%

YYCARGLLRGGWNDVDYYGMDV (Human) [hCDR3, peptide based on the CDR3 of the heavy chain of the human 16/6Id mAb]
inhibition of the proliferative responses of lymph node cells to the immunizing antibody: up to 100%
